The other results are listed elsewhere or left out. These are further read-outs of the screen, such as a control signal, another cell line or another target. No call is given for them. Compounds called inactive in the main read-out are mostly missing here. Potencies come from curve fits of mixed quality, noted in brackets.
Assay: qHTS Assay for Lipid Storage Modulators in Drosophila S3 Cells;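 on cell number change: cells counted by Cell Tracker Red CMTPX staining in the red channel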
Conditions: BODIPY lipid droplet fluorescence, 18-24 h; for cell number change: measured here: cell count max response, cells fed with added oleic acid
Summary of the method: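 Drosophila S3 cells got compounds at several concentrations plus oleic acid (400 uM solution). Laser-scanning cytometry with 488 nm excitation read lipid droplets at 500-530 nm and cells at 575-640 nm. Percent activity was relative to 20 uM Triacsin C.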

[1] = measured here: lipid fluorescence (Fed channel) AC50, cells fed with added oleic acid
[2] = measured here: cell number channel AC50, cells fed with added oleic acid

| Structure (SMILES) | cell number change [%] | AC50 [1] | AC50 [2] |
| --- | --- | --- | --- |
| COc1ccc(OC)c(S(=O)(=O)Nc2c(F)cccc2F)c1 | -5.21 | 58 nM [rising, full curve, poor fit] |  |
| CC1(S(=O)(=O)O)CC(=O)c2ccccc2C1=O (stereo not drawn) | -25 |  |  |
| CC(=O)N1CCN(C(=O)CNC(=O)c2ccc(Br)o2)CC1 | 31.1 |  | 8200 nM [rising, partial curve, poor fit] |
| Cc1cc(C)c2c(-n3cccc3)n[nH]c2n1 | 67.9 |  |  |
| O=C(Nc1cccc(Cl)c1)c1ccc(NCC2CCCO2)c([N+](=O)[O-])c1 (stereo not drawn) | 13.5 |  |  |
| Cc1ccc(C(=O)C(c2ccccc2)N2Cc3ccccc3C2=N)cc1 (stereo not drawn) | 4.31 |  | 2910 nM [rising, partial curve, poor fit] |
| Cc1ccc(S(=O)(=O)Nc2ccc(C(=O)OCC(=O)N(CCC#N)c3ccccc3)cc2)cc1C | 6.38 | 517 nM [falling, full curve, poor fit] | 25.9 nM [falling, full curve, poor fit] |
| Cn1nnnc1Sc1ncnc2scc(-c3cccc(S(C)(=O)=O)c3)c12 | -16.6 | 5.8 nM [rising, full curve, poor fit] |  |
| Cc1ccc(S(=O)(=O)CC(=O)Nc2nc3ccc(S(N)(=O)=O)cc3s2)cc1 | 11 | 580 nM [rising, single point] |  |
| Cc1ccc(-n2nnnc2SCC(=O)c2cc(C)n(CC3CCCO3)c2C)cc1 (stereo not drawn) | -6.52 | 4110 nM [rising, single point] |  |
| O=C(Nc1ccccc1)c1ccc2c(c1)OCO2 | 71.8 |  | 29100 nM [rising, single point] |
| COc1cccc(CNC(=O)CCNC(=O)N2CCn3c2nc2ccccc23)c1 | 8.47 |  |  |
| COc1ccc(CNc2n[nH]c(NCc3ccc(OC)c(OC)c3)n2)cc1OC | 17 | 18400 nM [rising, single point] |  |
| COc1cc(-c2nn3c(-c4ccccn4)nnc3s2)cc(OC)c1OC | 2.28 | 820 nM [rising, full curve] |  |
| CC(=O)c1ccc(OCCn2c(SCC(=O)O)nc3ccccc32)cc1 | -6.04 |  |  |
| COc1ccc(S(=O)(=O)N(CC(=O)O)c2ccccn2)cc1 | 33.1 |  | 14600 nM [rising, partial curve, poor fit] |
| COc1ccc(NS(=O)(=O)c2ccc(Br)s2)cc1OC | -37.1 | 1160 nM [rising, single point] | 29100 nM [falling, single point] |
| COc1ccc(C(=O)N/N=C/c2c(CO)cnc(C)c2O)cc1 | 27.3 | 29100 nM [rising, single point] |  |

2 compounds picked at random from the list so far:

| Structure (SMILES) | cell number change [%] | AC50 [1] | AC50 [2] |
| --- | --- | --- | --- |
| Cc1ccc(-n2nnnc2SCC(=O)c2cc(C)n(CC3CCCO3)c2C)cc1 (stereo not drawn) | -6.52 | 4110 nM [rising, single point] |  |
| CC1(S(=O)(=O)O)CC(=O)c2ccccc2C1=O (stereo not drawn) | -25 |  |  |
